According to patent US20170189504A1, “NOVEL PEPTIDES AND COMBINATION OF PEPTIDES FOR USE IN IMMUNOTHERAPY AGAINST VARIOUS CANCERS” (immatics biotechnologies GmbH, priority 2015, published 2017):

What was measured:
HLA-A*24 = assay: Identification and relative LC-MS quantitation of HLA-A*24-presented tumor-associated peptides on tissue samples (presentation profiles, Tables 14A, 14B, 16, FIG. 1); design: species or system human; key to Presentation score GC / Presentation score NSCLC / Presentation score PCA / Presentation score GB / Presentation score HCC / Presentation score RCC: specifically presented on tumors (++++); very highly over-presented on tumors compared to a panel of normal tissues (+++); highly over-presented on tumors compared to a panel of normal tissues (++); over-presented on tumors compared to a panel of normal tissues (+); details: for Presentation score NSCLC: non-small cell lung cancer (N = 91) vs panel of normal tissues (N = 70); for Presentation score GC: gastric cancer (N = 44) vs panel of normal tissues (N = 70)
source genes (mRNA) [1] = assay: Gene and exon expression of source genes, TCGA tumor samples compared with normal tissue samples (Lonsdale, 2013) (Table 17); design: species or system human; details: for Over-expression category of source gene (target coverage), CHOL: CHOL = Cholangiocarcinoma (N = 36); for Over-expression category of source gene (target coverage), KIRP: KIRP = Papillary kidney carcinoma (N = 291); for Over-expression category of source gene (target coverage), LUAD: LUAD = Lung adenocarcinoma (N = 517); for Over-expression category of source gene (target coverage), PRAD: PRAD = Prostate adenocarcinoma (N = 498); for Over-expression category of source gene (target coverage), SKCM: SKCM = Skin cutaneous melanoma (N = 473); for Over-expression category of source gene (target coverage), LAML: LAML = Acute Myeloid Leukemia (N = 173)
source genes (mRNA) [2] = assay: Expression profiling of source genes by in-house RNASeq of tumor and normal tissues (Table 18, FIG. 2); design: species or system human; key: very highly over-expressed in tumors compared to a panel of normal tissues (+++); highly over-expressed in tumors compared to a panel of normal tissues (++); over-expressed in tumors compared to a panel of normal tissues (+); details: source gene of peptide
[3] = Table 14A, HLA-A*24-binding tumor-associated peptides, cancer entities on which the peptide was found presented
[4] = HLA-A*24-binding peptides, additional cancer entities, GB = glioblastoma, HCC = hepatocellular carcinoma, NSCLC = non-small cell lung cancer, PCA = prostate cancer

Substance | Presentation score NSCLC (HLA-A*24; HLA-A*24 peptides) | Peptide Presentation on cancer entities (HLA-A*24; [3]) | Over-expression category of source gene (target coverage), CHOL (source genes (mRNA) [1]; same cutoff) | Over-expression category of source gene (target coverage), KIRP (source genes (mRNA) [1]; same cutoff) | Over-expression category of source gene (target coverage), LUAD (source genes (mRNA) [1]; same cutoff) | Over-expression category of source gene (target coverage), PRAD (source genes (mRNA) [1]; same cutoff) | Over-expression category of source gene (target coverage), SKCM (source genes (mRNA) [1]; same cutoff) | Peptide Presentation on cancer entities (HLA-A*24; [4]) | Presentation score GC (HLA-A*24; HLA-A*24 peptides) | Over-expression category of source gene (target coverage), LAML (source genes (mRNA) [1]; same cutoff) | other results
189: peptide found in TRPM8 (gene looked up) (WYVNGVNYF; listed as Homo sapiens) [compound 189] | ++++ | NSCLC, PCA | C (>=5% of tumors above the cutoff, but <20%) | C (>=5% of tumors above the cutoff, but <20%) | C (>=5% of tumors above the cutoff, but <20%) | A (>=50% of tumors above the cutoff) | C (>=5% of tumors above the cutoff, but <20%) |  |  |  | Presentation score PCA (HLA-A*24; HLA-A*24 peptides, prostate cancer (N = 40) vs panel of normal tissues (N = 70)): ++++; Over-expression category of source gene (target coverage), LIHC (source genes (mRNA) [1]; LIHC = Liver hepatocellular carcinoma (N = 374), same cutoff): C (>=5% of tumors above the cutoff, but <20%); Expression score GB (source genes (mRNA) [2]; glioblastoma (N = 24) vs panel of normal tissues): +; Expression score HCC (source genes (mRNA) [2]; hepatocellular carcinoma (N = 15) vs panel of normal tissues): ++; Expression score PCA (source genes (mRNA) [2]; prostate cancer and benign prostate hyperplasia (N = 5) vs panel of normal tissues): +++; Expression score SCLC (source genes (mRNA) [2]; small cell lung cancer (N = 10) vs panel of normal tissues): +++
162: peptide found in CTSG (gene looked up) (VFTRVSSFL; listed as Homo sapiens) [compound 162] | ++++ | GB, GC, NSCLC |  |  |  |  |  | HCC | ++++ | A (>=50% of tumors above the cutoff) | Presentation score GB (HLA-A*24; HLA-A*24 peptides, glioblastoma (N = 18) vs panel of normal tissues (N = 70)): ++++
212: peptide found in FBXO3 (gene looked up) (YYTFHFLYF; listed as Homo sapiens) [compound 212] | +++ | GC, NSCLC, HCC | B (>= 20% of tumors above the cutoff, but <50%) | B (>= 20% of tumors above the cutoff, but <50%) | C (>=5% of tumors above the cutoff, but <20%) | B (>= 20% of tumors above the cutoff, but <50%) | C (>=5% of tumors above the cutoff, but <20%) | PCA | +++ | C (>=5% of tumors above the cutoff, but <20%) | Presentation score HCC (HLA-A*24; HLA-A*24 peptides, hepatocellular carcinoma (N = 15) vs panel of normal tissues (N = 70)): +++; Over-expression category of source gene (target coverage), BLCA (source genes (mRNA) [1]; BLCA = Bladder urothelial carcinoma (N = 408), same cutoff): C (>=5% of tumors above the cutoff, but <20%); Over-expression category of source gene (target coverage), BRCA (source genes (mRNA) [1]; BRCA = Breast cancer (N = 1104), tumors more than 2-fold above highest 75% percentile of normal tissues): A (>=50% of tumors above the cutoff); Over-expression category of source gene (target coverage), COAD (source genes (mRNA) [1]; COAD = Colon and rectal adenocarcinoma (N = 462), same cutoff): C (>=5% of tumors above the cutoff, but <20%); Over-expression category of source gene (target coverage), ESCA (source genes (mRNA) [1]; ESCA = Esophageal cancer (N = 185), same cutoff): B (>= 20% of tumors above the cutoff, but <50%); Over-expression category of source gene (target coverage), GBM (source genes (mRNA) [1]; GBM = Glioblastoma multiforme (N = 169), same cutoff): A (>=50% of tumors above the cutoff); Over-expression category of source gene (target coverage), KICH (source genes (mRNA) [1]; KICH = Kidney chromophobe (N = 66), same cutoff): B (>= 20% of tumors above the cutoff, but <50%); Over-expression category of source gene (target coverage), KIRC (source genes (mRNA) [1]; KIRC = Clear cell kidney carcinoma (N = 534), same cutoff): A (>=50% of tumors above the cutoff); Over-expression category of source gene (target coverage), LGG (source genes (mRNA) [1]; LGG = Lower grade glioma (N = 534), same cutoff): B (>= 20% of tumors above the cutoff, but <50%); Over-expression category of source gene (target coverage), LUSC (source genes (mRNA) [1]; LUSC = Lung squamous cell carcinoma (N = 503), same cutoff): B (>= 20% of tumors above the cutoff, but <50%); Over-expression category of source gene (target coverage), OV (source genes (mRNA) [1]; OV = Ovarian serous cystadenocarcinoma (N = 309), same cutoff): B (>= 20% of tumors above the cutoff, but <50%); Over-expression category of source gene (target coverage), PAAD (source genes (mRNA) [1]; PAAD = Pancreatic ductal adenocarcinoma (N = 179), same cutoff): C (>=5% of tumors above the cutoff, but <20%); Over-expression category of source gene (target coverage), READ (source genes (mRNA) [1]; READ = Colon and rectal adenocarcinoma (N = 167), same cutoff): B (>= 20% of tumors above the cutoff, but <50%); Over-expression category of source gene (target coverage), STAD (source genes (mRNA) [1]; STAD = Stomach adenocarcinoma (N = 415), same cutoff): B (>= 20% of tumors above the cutoff, but <50%)

For some of these results: Expression grades refer to the transcript from which the peptide derives; gene names, where given, were looked up from the sequence.
